Data reported in the supplement of paper PMC4683952.
Where a name gives a salt, the structure may show the parent alone. Some of the results follow. Rule as the data show it: active = 2.5 or more and inactive = the rest. Single values are uncertain here, since repeats match poorly.

system: Lgr5 (MarsCy1-Lgr5-EGFP, U2OS); assay: cell-surface Lgr5 expression (SCi1 fluorescence, background-subtracted) relative to WT control (fold of WT control); higher = more Lgr5 at the plasma membrane; conditions: U2OS MarsCy1-Lgr5-EGFP stable; treatment time: overnight; library: Prestwick; 20 µM

For `CNCC(O)c1ccc(O)cc1` (racemic) [(+,-)-Synephrine], which “cell-surface Lgr5 expression” value is on record?
The value was inactive: 1.23.

Which “cell-surface Lgr5 expression” value does the source give for `COc1cc2c(cc1O)[C@@H]1Cc3ccc(OC)c(O)c3CN1CC2` [Scoulerine] here?
The value was inactive: 1.68.

For `C1CCc2nnnn2CC1` [Pentylenetetrazole], which “cell-surface Lgr5 expression” value is on record?
The value was inactive: 1.42.

`CC(Cc1ccc(O)cc1)NCC(O)c1cc(O)cc(O)c1` (stereo not given) [Fenoterol hydrobromide] was tested. Which “cell-surface Lgr5 expression” value did it give?
Its value is inactive: 2.1.

How did the “cell-surface Lgr5 expression” value turn out when `C=C1[C@@H]2CC[C@H]3[C@]4(C)C[C@H](O[C@@H]5O[C@H](CO)[C@@H](OS(=O)(=O)O)[C@H](OS(=O)(=O)O)[C@H]5OC(=O)CC(C)C)C[C@@H](C(=O)O)[C@H]4CC[C@]3(C2)[C@@H]1O` [Atractyloside potassium salt] was run?
The value was inactive: 1.5.

Which “cell-surface Lgr5 expression” value does the source give for `C=C[C@H]1CN2CC[C@H]1C[C@@H]2[C@@H](O)c1ccnc2ccccc12` [Cinchonine] here?
The value was inactive: 1.17.

`COc1cc2c3cc1Oc1cc(ccc1O)C[C@@H]1c4c(cc(OC)c(O)c4Oc4cccc(c4)C[C@@H]3N(C)CC2)CC[N+]1(C)C` [Tubocurarine chloride pentahydrate (+)] was tested. Which “cell-surface Lgr5 expression” value did it give?
The value was inactive: 1.94.

For `C=C[C@H]1CN2CC[C@H]1C[C@H]2[C@H](O)c1ccnc2ccccc12` [(-)-Cinchonidine], which “cell-surface Lgr5 expression” value is on record?
Its value is inactive: 2.48.

`CC1=NCCc2c1[nH]c1cc(O)ccc21` [Harmalol hydrochloride dihydrate] was tested. Which “cell-surface Lgr5 expression” value did it give?
Its value is active: 2.89.

How did the “cell-surface Lgr5 expression” value turn out when `COc1ccc2c(c1)[C@]13CCCC[C@@H]1[C@H](C2)N(C)CC3` [Dextromethorphan hydrobromide monohydrate] was run?
Its value is inactive: 1.71.

With `CCN(CC)C(=O)N[C@H]1C=C2c3cccc4[nH]cc(c34)C[C@H]2N(C)C1` [Lisuride (S)(-)] as the compound, how does the “cell-surface Lgr5 expression” value read?
The value was inactive: 1.39.

Which “cell-surface Lgr5 expression” value does the source give for `C[C@]12CC[C@H]3[C@@H](CC[C@]4(O)C[C@@H](O)CC[C@]34C=O)[C@@]1(O)CC[C@@H]2C1=CC(=O)OC1` [Strophanthidin] here?
The value was inactive: 0.703.

With `S=C(NC1CCCCC1)N1CCC(c2cnc[nH]2)CC1` [Thioperamide maleate] as the compound, how does the “cell-surface Lgr5 expression” value read?
The value was inactive: 2.37.

`CN1[C@@H]2CCC[C@H]1CC(=O)C2` [Pseudopelletierine hydrochloride] was tested. Which “cell-surface Lgr5 expression” value did it give?
The value was inactive: 1.79.

Which “cell-surface Lgr5 expression” value does the source give for `CCN(CC)C(=O)N[C@@H]1CC2c3cccc4[nH]cc(c34)CC2N(C)C1` (stereo partly drawn) [S(-)-terguride hydrogen maleate] here?
The value was inactive: 1.81.

Which “cell-surface Lgr5 expression” value does the source give for `NC(N)=NOCC[C@H](N)C(=O)O` [Canavanine sulfate monohydrate (L,+)] here?
The value was inactive: 1.21.

With `C#C[C@]1(O)CC[C@H]2[C@@H]3CCC4=CC(=O)CC[C@]4(C)[C@H]3CC[C@@]21C` [Ethisterone] as the compound, how does the “cell-surface Lgr5 expression” value read?
The value was active: 2.87.

For `C=C1[C@H]2C[C@@]3([C@@H]1O)[C@@H](C[C@@H]2O)[C@]12[C@@H]4C[C@H]3[C@H]1N(CC)C[C@]4(C)CC[C@@H]2O` [Napelline], which “cell-surface Lgr5 expression” value is on record?
Its value is inactive: 1.32.

Which “cell-surface Lgr5 expression” value does the source give for `C/C=C1/C[N+]2(C)CCC34C(=C(C=O)[C@H]1C[C@@H]32)Nc1ccccc14` (stereo not given in full) [Fluorocurarine chloride] here?
Its value is inactive: 1.87.

For `CC(C)[N+](C)(CCC(C(N)=O)(c1ccccc1)c1ccccc1)C(C)C` [Isopropamide iodide], which “cell-surface Lgr5 expression” value is on record?
Its value is inactive: 1.75.

For `O=C([O-])c1ccccc1-c1c2cc(Br)c(=O)cc-2oc2[c]([Hg+])c([O-])c(Br)cc12.[Na+].[Na+].[OH-]` [Merbromin], which “cell-surface Lgr5 expression” value is on record?
The value was inactive: 2.23.

How did the “cell-surface Lgr5 expression” value turn out when `O=c1[nH]c2ccccc2n1CCCN1CCC(n2c(=O)[nH]c3cc(Cl)ccc32)CC1` [Domperidone maleate] was run?
Its value is inactive: 1.1.

Which “cell-surface Lgr5 expression” value does the source give for `O=C(O)CCCc1ccc(N(CCCl)CCCl)cc1` [Chlorambucil] here?
Its value is inactive: 0.889.

Which “cell-surface Lgr5 expression” value does the source give for `C[C@]12CCC(=O)C=C1CC[C@@H]1[C@@H]2C(=O)C[C@]2(C)C(=O)CC[C@@H]12` [Adrenosterone] here?
Its value is inactive: 2.11.

For `CC[C@H](C)[C@H]1O[C@]2(C=C[C@@H]1C)C[C@@H]1C[C@@H](C/C=C(\C)[C@@H](O[C@H]3C[C@H](OC)[C@@H](O[C@H]4C[C@H](OC)[C@@H](O)[C@H](C)O4)[C@H](C)O3)[C@@H](C)/C=C/C=C3\CO[C@@H]4[C@H](O)C(C)=C[C@@H](C(=O)O1)[C@]34O)O2.CO[C@H]1C[C@H](O[C@H]2[C@H](C)O[C@@H](O[C@@H]3/C(C)=C/C[C@@H]4C[C@@H](C[C@]5(C=C[C@H](C)[C@@H](C(C)C)O5)O4)OC(=O)[C@@H]4C=C(C)[C@@H](O)[C@H]5OC/C(=C\C=C\[C@@H]3C)[C@]54O)C[C@@H]2OC)O[C@@H](C)[C@@H]1O` [Avermectin B1], which “cell-surface Lgr5 expression” value is on record?
The value was inactive: 2.08.

With `CN(C)Cc1c[nH]c2ccccc12` [Gramine] as the compound, how does the “cell-surface Lgr5 expression” value read?
Its value is active: 2.66.

Which “cell-surface Lgr5 expression” value does the source give for `C[N+]1(C)CCOC(O)(c2ccc(-c3ccc(C4(O)C[N+](C)(C)CCO4)cc3)cc2)C1` (stereo not given) [Hemicholinium bromide] here?
Its value is inactive: 1.19.

How did the “cell-surface Lgr5 expression” value turn out when `COc1ccn(C)c(=O)c1C#N` [Ricinine] was run?
Its value is inactive: 1.57.

How did the “cell-surface Lgr5 expression” value turn out when `O=C1C=C2C=C[C@@H]3C[C@@]2(O1)[C@H]1CCCCN31` [Securinine] was run?
Its value is inactive: 1.45.

Which “cell-surface Lgr5 expression” value does the source give for `COc1ccc2[nH]c3c(c2c1)CCN=C3C` [Methoxy-6-harmalan] here?
Its value is active: 2.99.

With `CC(C)[C@@]1(NC(=O)[C@@H]2C[C@@H]3c4cccc5[nH]cc(c45)C[C@H]3N(C)C2)O[C@@]2(O)[C@@H]3CCCN3C(=O)[C@H](Cc3ccccc3)N2C1=O` [Dihydroergocristine mesylate] as the compound, how does the “cell-surface Lgr5 expression” value read?
Its value is active: 4.11.

Which “cell-surface Lgr5 expression” value does the source give for `C[N+]1(C)[C@@H]2CC[C@H]1C[C@@H](OC(=O)C(CO)c1ccccc1)C2` (stereo not given in full) [Methylatropine nitrate] here?
The value was inactive: 1.88.

`CN1C[C@H](C(=O)N[C@]2(C)O[C@@]3(O)[C@@H]4CCCN4C(=O)[C@H](Cc4ccccc4)N3C2=O)C[C@@H]2c3cccc4[nH]cc(c34)C[C@H]21` [Dihydroergotamine tartrate] was tested. Which “cell-surface Lgr5 expression” value did it give?
The value was inactive: 1.59.

How did the “cell-surface Lgr5 expression” value turn out when `c1ccc2nc(N3CCNCC3)ccc2c1` [Quipazine dimaleate salt] was run?
The value was active: 2.58.

Which “cell-surface Lgr5 expression” value does the source give for `C[N+](C)(C)CCCCCCCCCC[N+](C)(C)C` [Decamethonium bromide] here?
Its value is inactive: 1.14.
